This is one part of the list. The calls rarely recur for the same compound in another form.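 In K562 cells expressing nanoluciferase-fused kinases, luminescence was recorded at 4 h intervals between 2 and 18 h, normalized as percent of control with DMSO at 100% and a positive control at 0%. A significant (2 sigma) signal drop marks a time point as decreased. The authors' rule for a hit is not shown and takes in more than the number of time points.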
Target: DYRK2 (UniProt Q92630)
Test: kinase-Nluc reporter destabilization hit call (1 = scored as downregulated) (binary); higher = compound decreases kinase abundance
Settings: K562; 2-18 h

Amino acid sequences for entries named in this document (tags omitted). A change or cut given only in a name is not applied to a line headed by its entry.
UniProt Q92630: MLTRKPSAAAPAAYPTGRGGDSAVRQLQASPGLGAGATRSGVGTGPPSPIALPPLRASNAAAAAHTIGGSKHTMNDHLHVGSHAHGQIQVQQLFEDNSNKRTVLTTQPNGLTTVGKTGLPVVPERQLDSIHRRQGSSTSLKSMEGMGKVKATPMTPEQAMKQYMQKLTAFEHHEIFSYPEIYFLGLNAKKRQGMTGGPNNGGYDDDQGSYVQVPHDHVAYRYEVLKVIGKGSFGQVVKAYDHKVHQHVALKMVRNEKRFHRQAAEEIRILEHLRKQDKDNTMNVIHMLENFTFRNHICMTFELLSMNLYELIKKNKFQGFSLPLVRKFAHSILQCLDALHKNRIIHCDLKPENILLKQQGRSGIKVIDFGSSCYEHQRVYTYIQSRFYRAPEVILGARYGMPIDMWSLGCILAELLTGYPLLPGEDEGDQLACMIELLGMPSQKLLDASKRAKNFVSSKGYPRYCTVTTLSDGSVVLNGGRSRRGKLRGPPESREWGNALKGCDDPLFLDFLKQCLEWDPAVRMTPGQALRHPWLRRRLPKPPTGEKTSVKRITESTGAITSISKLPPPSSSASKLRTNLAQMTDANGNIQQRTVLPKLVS

Row | SMILES | kinase-Nluc reporter destabilization hit call
1 | O=c1cc(O)c2ccccc2o1 [4-Hydroxycoumarin] (10 µM) | inactive: 0
2 | CCCCNc1nc(N)c2[nH]c(=O)n(Cc3ccc(C)nc3)c2n1 (10 µM) | inactive: 0
3 | CCCS(=O)(=O)Nc1ccc(F)c(-n2cc(-c3cncnc3)c3nc(N(C)C4CCN(CC)CC4)ccc32)c1F (2 µM) | inactive: 0
4 | C[C@H]1CC[C@]2(NC1)O[C@H]1C[C@H]3[C@@H]4CC[C@H]5C[C@@H](O[C@@H]6O[C@H](CO)[C@H](O[C@@H]7O[C@H](CO)[C@@H](O)[C@H](O[C@@H]8OC[C@@H](O)[C@H](O)[C@H]8O)[C@H]7O[C@@H]7O[C@H](CO)[C@@H](O)[C@H](O)[C@H]7O)[C@H](O)[C@H]6O)CC[C@]5(C)[C@H]4CC[C@]3(C)[C@H]1[C@@H]2C [Tomatine] (2.5 µM) | inactive: 0
5 | Cc1n[nH]cc1-c1cc2nc([C@@H]3CC4CCN3CC4)[nH]c(=O)c2s1 [Simurosertib] (2.5 µM) | inactive: 0
6 | O=Cc1cn(Cc2ccc(Cl)cc2)c2ccccc12 [Oncrasin-1] (10 µM) | inactive: 0
7 | CC(=O)OC(C)(C)/C=C/C(=O)[C@](C)(O)[C@H]1[C@H](O)C[C@@]2(C)[C@@H]3CC=C4[C@@H](C=C(O)C(=O)C4(C)C)[C@]3(C)C(=O)C[C@]12C [Cucurbitacin E] (2.5 µM) | inactive: 0
8 | C[C@@H]1CC[C@H]2[C@@H](C)C(=O)O[C@@H]3O[C@@]4(C)CC[C@@H]1[C@]32OO4 [Artemisinin] (10 µM) | inactive: 0
